PubChem BioAssay AID1259279, Sanger Institute – 2017
Shown is a random part of 794 deposited reagents. 11 of them (1.4%) were called active. 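Calls reflect knock-down alone in the vehicle arm, not drug synergy.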 A number with no mark means an inactive call. No viability above 1 is reported: the scale is capped. The record does not give: the amount of reagent, the time to read-out.

Purpose: 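Kinases that colorectal cancer cells need to survive, alone or with drugs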 (primary screen)
Cells: LS180 human colorectal cancer cells
Knock-down reagent: siRNA pool against human genes
Treatment: anchor drug BYL719 at 1 µM, cetuximab at 5 µg/ml or trametinib at 10 nM, or DMSO vehicle only
Detection: 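Viability as a fraction of non-targeting control and as a replicate-averaged robust z-score, with separate synergy scores for BYL719, cetuximab and trametinib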
Scale: viability z-score, no drug: higher = more viable cells after knock-down; viability, no drug: higher = more viable cells; synergy score with BYL719 and synergy score with cetuximab and synergy score with trametinib: higher = stronger synthetic lethal synergy with drug
Call rule: 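a knock-down is called active, meaning essential, if its viability z-score in vehicle alone falls below -3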
Calls: active = essential (knock-down alone cuts viability); inactive = no change without drug

gene | viability z-score, no drug | viability, no drug (fraction) | synergy score with BYL719 | synergy score with cetuximab | synergy score with trametinib
MAP4K2 (GeneID 5871) | -0.601 | 0.841 | -0.0932 | -0.16 | 0.0148
PRP4K (GeneID 8899) | 0.516 | 0.962 | -0.0295 | 0.0277 | 0.0661
GRK7 (GeneID 131890) | -2.04 | 0.684 | -0.0745 | -0.28 | -0.106
DCLK1 (GeneID 9201) | -0.581 | 0.843 | -0.0593 | -0.0868 | -0.128
MAPKAPK2 (GeneID 9261) | -0.655 | 0.835 | -0.0542 | -0.0764 | -0.107
BPTF (GeneID 2186) | 0.381 | 0.948 | 0.116 | 0.0284 | 0.0342
MAPK8 (GeneID 5599) | 0.86 | 1 | -0.16 | -0.13 | 0.0593
ROCK2 (GeneID 9475) | 0.86 | 1 | -0.0367 | -0.0799 | -0.0105
GNAS (GeneID 2778) | -0.111 | 0.894 | 0.0518 | 0.136 | 0.1
CHUK (GeneID 1147) | -0.368 | 0.866 | -0.308 | -0.241 | -0.36
DYRK1A (GeneID 1859) | -0.2 | 0.884 | -0.089 | -0.118 | 0.0414
MYLK4 (GeneID 340156) | -0.936 | 0.804 | -0.18 | -0.138 | -0.0769
RPS6KL1 (GeneID 83694) | -1.15 | 0.781 | -0.0966 | -0.176 | 0.0124
TNK1 (GeneID 8711) | -1.18 | 0.778 | -0.0617 | -0.169 | 0.0118
CLK4 (GeneID 57396) | 0.587 | 0.97 | 0.0102 | -0.153 | -0.0937
IKBKE (GeneID 9641) | -1.71 | 0.72 | -0.11 | -0.139 | -0.136

Continued; the last 5 above are carried over.
gene | viability z-score, no drug | viability, no drug (fraction) | synergy score with BYL719 | synergy score with cetuximab | synergy score with trametinib
MYLK4 (GeneID 340156) | -0.936 | 0.804 | -0.18 | -0.138 | -0.0769
RPS6KL1 (GeneID 83694) | -1.15 | 0.781 | -0.0966 | -0.176 | 0.0124
TNK1 (GeneID 8711) | -1.18 | 0.778 | -0.0617 | -0.169 | 0.0118
CLK4 (GeneID 57396) | 0.587 | 0.97 | 0.0102 | -0.153 | -0.0937
IKBKE (GeneID 9641) | -1.71 | 0.72 | -0.11 | -0.139 | -0.136
PIP5K1A (GeneID 8394) | -2.13 | 0.674 | -0.114 | -0.0756 | -0.0818
CTNNB1 (GeneID 1499) | -3.77 (active) | 0.495 | -0.191 | -0.3 | -0.317
THNSL1 (GeneID 79896) | 0.66 | 0.978 | -0.158 | -0.134 | -0.0827
ALDH18A1 (GeneID 5832) | 0.844 | 0.998 | -0.118 | -0.108 | -0.0409
PRKAR1A (GeneID 5573) | 0.86 | 1 | -0.0155 | -0.0402 | 0.049
SCYL3 (GeneID 57147) | 0.86 | 1 | -0.0175 | -0.0146 | -0.0822
STK10 (GeneID 6793) | 0.86 | 1 | -0.201 | -0.0515 | -0.124
SRC (GeneID 6714) | 0.163 | 0.924 | -0.127 | -0.144 | 0.0276
MSR1 (GeneID 4481) | 0.716 | 0.984 | 0.068 | 0.0849 | 0.145
MERTK (GeneID 10461) | -0.339 | 0.869 | -0.139 | -0.139 | 0.0086
TSSK4 (GeneID 283629) | 0.86 | 1 | -0.107 | -0.155 | -0.0127
MAP3K13 (GeneID 9175) | 0.271 | 0.936 | -0.159 | -0.109 | -0.251
GCK (GeneID 2645) | -1.47 | 0.746 | -0.0899 | -0.215 | -0.0769
CKS1B (GeneID 1163) | 0.86 | 1 | -0.0183 | -0.166 | -0.0962
ASPM (GeneID 259266) | -0.339 | 0.869 | -0.128 | -0.0744 | -0.183
CDC42BPG (GeneID 55561) | 0.86 | 1 | -0.032 | -0.116 | -0.00691
EIF2AK3 (GeneID 9451) | 0.397 | 0.949 | -0.11 | 0.0159 | -0.0629
MAP2K6 (GeneID 5608) | 0.783 | 0.992 | -0.0806 | -0.0863 | -0.0266
NRBP1 (GeneID 29959) | -0.8 | 0.819 | -0.253 | -0.165 | -0.253
PRKCH (GeneID 5583) | -0.467 | 0.855 | 0.0637 | 0.0122 | 0.00391
MYH10 (GeneID 4628) | -0.391 | 0.864 | -0.0866 | -0.018 | 0.0745
BCR (GeneID 613) | -0.446 | 0.858 | -0.187 | -0.15 | -0.0424
RPS6KA2 (GeneID 6196) | -2.43 | 0.641 | -0.0723 | 0.0107 | 0.0117
DBF4 (GeneID 10926) | 0.86 | 1 | -0.179 | -0.156 | 0.0638
IP6K2 (GeneID 51447) | -0.372 | 0.866 | -0.112 | -0.219 | 0.0213
DCLK3 (GeneID 85443) | -0.356 | 0.867 | -0.135 | -0.188 | -0.00347
PAK3 (GeneID 5063) | 0.135 | 0.921 | -0.038 | 0.0586 | 0.0965
AKT3 (GeneID 10000) | -0.356 | 0.867 | 0.0204 | -0.0582 | -0.0536
CDK10 (GeneID 8558) | 0.311 | 0.94 | -0.117 | -0.0534 | 0.0669
CDK12 (GeneID 51755) | 0.395 | 0.949 | -0.0749 | -0.0531 | -0.0835
NIM1K (GeneID 167359) | 0.86 | 1 | -0.116 | -0.0959 | -0.154
FGFR4 (GeneID 2264) | 0.0838 | 0.915 | -0.167 | -0.224 | -0.123
CAMK2N1 (GeneID 55450) | -2.09 | 0.679 | -0.0565 | 0.00306 | -0.123
GOLGA5 (GeneID 9950) | 0.854 | 0.999 | -0.0944 | -0.0599 | 0.0302
